According to the supplement of paper PMC10849652:
The list shows a part of the results. Residues, ends and D or L forms follow the SMILES beside them. *: point of attachment. Cbz = O=C(OCc1ccccc1)*

Chains of the proteins cited; added tags and fusions are not shown. Lines headed by an entry give the natural chain unless they say otherwise; changes in a name come on top.
UniProt Q8TET4: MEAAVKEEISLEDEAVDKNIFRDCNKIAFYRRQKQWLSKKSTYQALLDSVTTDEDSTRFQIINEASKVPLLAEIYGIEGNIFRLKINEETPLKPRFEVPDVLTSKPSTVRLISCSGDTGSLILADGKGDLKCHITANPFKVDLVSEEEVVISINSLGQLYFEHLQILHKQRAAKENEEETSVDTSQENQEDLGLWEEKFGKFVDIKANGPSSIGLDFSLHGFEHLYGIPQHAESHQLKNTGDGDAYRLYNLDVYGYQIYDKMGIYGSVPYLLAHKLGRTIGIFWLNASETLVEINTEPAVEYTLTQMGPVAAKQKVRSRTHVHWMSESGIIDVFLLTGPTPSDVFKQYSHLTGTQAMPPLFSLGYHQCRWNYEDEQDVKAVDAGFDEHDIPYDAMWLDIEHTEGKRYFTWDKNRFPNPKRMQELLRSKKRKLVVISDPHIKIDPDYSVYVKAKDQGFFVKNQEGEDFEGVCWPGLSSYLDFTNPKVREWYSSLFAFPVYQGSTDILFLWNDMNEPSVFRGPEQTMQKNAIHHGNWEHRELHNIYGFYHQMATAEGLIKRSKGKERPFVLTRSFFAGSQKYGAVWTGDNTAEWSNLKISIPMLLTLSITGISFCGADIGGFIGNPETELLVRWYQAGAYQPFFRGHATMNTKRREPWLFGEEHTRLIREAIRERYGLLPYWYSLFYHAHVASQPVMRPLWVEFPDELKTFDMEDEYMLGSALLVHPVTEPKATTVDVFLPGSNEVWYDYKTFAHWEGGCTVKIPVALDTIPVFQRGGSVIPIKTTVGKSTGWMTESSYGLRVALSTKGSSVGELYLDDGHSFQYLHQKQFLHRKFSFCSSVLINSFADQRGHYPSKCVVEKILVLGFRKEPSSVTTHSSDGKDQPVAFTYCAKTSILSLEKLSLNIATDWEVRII
UniProt Q9BZ67: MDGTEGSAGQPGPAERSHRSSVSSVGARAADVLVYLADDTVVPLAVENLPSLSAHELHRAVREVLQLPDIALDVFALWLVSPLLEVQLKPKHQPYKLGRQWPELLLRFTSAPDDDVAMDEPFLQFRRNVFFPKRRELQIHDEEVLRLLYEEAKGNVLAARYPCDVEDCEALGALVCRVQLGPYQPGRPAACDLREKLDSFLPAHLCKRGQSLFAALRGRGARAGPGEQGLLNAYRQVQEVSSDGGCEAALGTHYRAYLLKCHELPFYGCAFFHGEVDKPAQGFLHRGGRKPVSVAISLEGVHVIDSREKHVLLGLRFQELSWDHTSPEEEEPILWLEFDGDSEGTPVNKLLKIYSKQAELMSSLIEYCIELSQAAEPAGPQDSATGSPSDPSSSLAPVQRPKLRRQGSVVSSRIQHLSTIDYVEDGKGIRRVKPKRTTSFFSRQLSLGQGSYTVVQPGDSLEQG
UniProt P22083, whole entry, looked up: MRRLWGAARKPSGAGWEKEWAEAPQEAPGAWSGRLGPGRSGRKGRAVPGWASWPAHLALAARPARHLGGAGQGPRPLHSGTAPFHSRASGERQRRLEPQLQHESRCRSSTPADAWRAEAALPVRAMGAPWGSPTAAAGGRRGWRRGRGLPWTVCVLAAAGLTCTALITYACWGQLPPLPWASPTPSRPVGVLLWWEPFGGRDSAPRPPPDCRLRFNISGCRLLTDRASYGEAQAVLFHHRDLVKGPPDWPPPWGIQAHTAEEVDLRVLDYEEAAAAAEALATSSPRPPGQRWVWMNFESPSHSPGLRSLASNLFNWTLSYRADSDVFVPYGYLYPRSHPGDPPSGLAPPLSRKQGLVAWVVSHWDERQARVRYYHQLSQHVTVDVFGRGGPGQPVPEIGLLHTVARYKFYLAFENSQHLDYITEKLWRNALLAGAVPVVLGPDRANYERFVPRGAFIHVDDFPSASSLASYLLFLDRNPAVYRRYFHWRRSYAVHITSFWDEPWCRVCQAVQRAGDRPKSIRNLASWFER
UniProt Q92837: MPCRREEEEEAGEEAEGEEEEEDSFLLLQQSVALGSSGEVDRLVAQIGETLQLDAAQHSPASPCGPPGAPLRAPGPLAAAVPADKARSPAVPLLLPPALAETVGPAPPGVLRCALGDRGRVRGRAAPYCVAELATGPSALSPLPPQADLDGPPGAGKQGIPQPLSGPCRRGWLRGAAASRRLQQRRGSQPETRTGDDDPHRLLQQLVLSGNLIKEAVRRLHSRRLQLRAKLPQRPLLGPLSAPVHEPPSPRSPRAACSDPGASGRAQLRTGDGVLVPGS
UniProt Q969S9: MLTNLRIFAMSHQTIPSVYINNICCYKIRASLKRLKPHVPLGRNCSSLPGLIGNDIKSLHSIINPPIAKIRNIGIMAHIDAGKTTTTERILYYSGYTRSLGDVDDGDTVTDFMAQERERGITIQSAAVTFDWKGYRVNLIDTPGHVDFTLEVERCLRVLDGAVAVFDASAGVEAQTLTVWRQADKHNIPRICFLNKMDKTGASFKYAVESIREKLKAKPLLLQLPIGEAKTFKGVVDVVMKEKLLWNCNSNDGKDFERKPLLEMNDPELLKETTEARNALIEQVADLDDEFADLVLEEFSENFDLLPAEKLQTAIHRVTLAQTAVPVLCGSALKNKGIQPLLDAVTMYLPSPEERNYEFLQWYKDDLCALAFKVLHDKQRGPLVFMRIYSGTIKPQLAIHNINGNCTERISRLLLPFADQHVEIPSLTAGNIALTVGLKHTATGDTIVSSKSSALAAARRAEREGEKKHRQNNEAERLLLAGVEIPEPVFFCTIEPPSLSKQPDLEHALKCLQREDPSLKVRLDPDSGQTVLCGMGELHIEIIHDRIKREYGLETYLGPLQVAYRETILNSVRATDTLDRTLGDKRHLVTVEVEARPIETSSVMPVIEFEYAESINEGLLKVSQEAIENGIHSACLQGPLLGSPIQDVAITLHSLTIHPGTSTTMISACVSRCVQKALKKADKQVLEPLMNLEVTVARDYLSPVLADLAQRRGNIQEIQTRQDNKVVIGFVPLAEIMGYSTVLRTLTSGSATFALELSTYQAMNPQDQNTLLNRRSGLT
UniProt Q9UET6: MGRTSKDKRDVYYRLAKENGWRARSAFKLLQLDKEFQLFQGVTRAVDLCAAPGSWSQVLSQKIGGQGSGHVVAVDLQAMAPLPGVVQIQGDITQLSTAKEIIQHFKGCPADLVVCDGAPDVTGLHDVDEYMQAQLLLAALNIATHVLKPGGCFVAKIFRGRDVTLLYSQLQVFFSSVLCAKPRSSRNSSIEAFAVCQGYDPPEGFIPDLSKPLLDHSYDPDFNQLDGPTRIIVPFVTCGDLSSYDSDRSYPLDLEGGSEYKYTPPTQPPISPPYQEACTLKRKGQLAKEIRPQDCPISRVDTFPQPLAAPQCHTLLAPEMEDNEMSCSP
UniProt P04406: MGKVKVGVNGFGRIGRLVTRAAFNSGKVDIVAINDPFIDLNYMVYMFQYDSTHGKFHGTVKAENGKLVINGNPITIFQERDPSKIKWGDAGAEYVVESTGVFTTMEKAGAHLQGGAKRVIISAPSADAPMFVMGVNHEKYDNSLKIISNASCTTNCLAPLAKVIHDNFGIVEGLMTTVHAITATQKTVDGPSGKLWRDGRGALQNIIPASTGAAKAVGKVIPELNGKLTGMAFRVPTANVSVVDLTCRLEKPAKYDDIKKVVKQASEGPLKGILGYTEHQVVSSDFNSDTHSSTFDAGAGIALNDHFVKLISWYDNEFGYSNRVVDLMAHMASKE
UniProt Q8WTR4: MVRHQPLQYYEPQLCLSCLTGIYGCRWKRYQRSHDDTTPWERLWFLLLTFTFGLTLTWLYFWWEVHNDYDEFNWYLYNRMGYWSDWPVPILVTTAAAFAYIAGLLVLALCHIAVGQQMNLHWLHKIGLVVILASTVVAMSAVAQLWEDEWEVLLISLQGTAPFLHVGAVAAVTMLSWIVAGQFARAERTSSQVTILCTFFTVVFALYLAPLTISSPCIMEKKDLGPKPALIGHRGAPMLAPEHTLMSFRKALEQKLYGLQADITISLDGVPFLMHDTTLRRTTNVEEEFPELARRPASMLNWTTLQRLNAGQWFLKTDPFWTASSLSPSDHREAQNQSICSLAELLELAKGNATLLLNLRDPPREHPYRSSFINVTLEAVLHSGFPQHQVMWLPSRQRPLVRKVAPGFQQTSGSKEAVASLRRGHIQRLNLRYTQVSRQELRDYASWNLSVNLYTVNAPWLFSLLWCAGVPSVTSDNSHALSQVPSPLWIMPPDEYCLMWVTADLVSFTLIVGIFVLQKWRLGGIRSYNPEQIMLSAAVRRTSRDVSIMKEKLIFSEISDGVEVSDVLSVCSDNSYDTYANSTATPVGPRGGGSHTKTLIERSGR
UniProt Q14393: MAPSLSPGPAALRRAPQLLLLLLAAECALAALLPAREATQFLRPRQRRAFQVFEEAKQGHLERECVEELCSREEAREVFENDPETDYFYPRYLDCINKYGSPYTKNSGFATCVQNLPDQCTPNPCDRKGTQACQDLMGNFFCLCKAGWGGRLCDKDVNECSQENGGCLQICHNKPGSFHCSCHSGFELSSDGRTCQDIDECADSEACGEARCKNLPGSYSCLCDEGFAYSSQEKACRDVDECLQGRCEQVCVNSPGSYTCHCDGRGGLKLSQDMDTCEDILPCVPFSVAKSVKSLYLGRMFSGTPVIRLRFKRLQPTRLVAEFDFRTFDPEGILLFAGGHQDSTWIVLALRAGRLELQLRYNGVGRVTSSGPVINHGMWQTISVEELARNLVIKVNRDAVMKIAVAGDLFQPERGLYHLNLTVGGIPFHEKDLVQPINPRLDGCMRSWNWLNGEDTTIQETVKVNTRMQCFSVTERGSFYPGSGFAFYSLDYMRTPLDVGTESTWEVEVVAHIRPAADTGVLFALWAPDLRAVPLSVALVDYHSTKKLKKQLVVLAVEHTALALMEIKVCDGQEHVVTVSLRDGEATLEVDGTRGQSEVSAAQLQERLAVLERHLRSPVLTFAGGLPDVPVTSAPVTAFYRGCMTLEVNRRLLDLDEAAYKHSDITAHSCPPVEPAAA
UniProt Q06547, whole entry, looked up: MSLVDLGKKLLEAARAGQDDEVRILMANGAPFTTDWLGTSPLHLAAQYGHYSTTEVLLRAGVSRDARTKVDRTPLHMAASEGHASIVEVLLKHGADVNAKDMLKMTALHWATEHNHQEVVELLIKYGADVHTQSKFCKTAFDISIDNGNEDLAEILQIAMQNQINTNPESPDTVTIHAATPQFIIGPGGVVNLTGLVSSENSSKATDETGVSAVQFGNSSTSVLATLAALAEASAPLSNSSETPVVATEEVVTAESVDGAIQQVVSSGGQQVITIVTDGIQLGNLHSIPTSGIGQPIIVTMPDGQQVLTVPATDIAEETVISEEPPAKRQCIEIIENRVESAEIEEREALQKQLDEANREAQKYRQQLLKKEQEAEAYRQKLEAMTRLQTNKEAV
UniProt Q99988: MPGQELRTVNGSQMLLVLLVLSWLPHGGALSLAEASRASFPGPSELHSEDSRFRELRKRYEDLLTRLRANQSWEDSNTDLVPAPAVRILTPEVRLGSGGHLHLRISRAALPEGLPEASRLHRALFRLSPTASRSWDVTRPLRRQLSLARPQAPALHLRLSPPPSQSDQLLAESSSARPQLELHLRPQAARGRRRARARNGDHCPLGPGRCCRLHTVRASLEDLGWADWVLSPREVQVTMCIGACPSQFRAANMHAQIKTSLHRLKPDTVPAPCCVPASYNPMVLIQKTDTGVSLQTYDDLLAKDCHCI

Key:
Assay in all cases: log2 fold change, soluble protein after heating vs DMSO (PISA); higher = thermal stabilisation; K562 cells, 10 uM, 30 min; active = over 0.2 and 3.5 SD of the protein, either way, in both replicates (recomputed)
[1] = compound: CC1=C(C(CC(=O)N1)C2=CC=C(C=C2)C(F)(F)F)C(=O)NC3=C(C=C4C(=C3)C=NN4)F
In short: (§1)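 K562 cells (2×10^6 cells/mL) were treated with 10 μM compound for 30 min, and aliquots were heated for 3 min over 48°C-58°C. Pooled aliquots were extracted in PBS with 0.5% NP-40 at 4°C, and the supernatant after 21,000xg for 90 min was measured by TMTpro 16plex LC-MS/MS with channel sums equalised. Reported thermal stability, relative to control samples and from duplicates, is a log2 fold change.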

[2] = compound: C/C(=N\NC(=O)C1=CC(=CC=C1)S(=O)(=O)N2CCOCC2)/C3=C(C=CC(=C3)Cl)O
In short: as §1

[3] = compound: C1=CC(=C(C=C1Cl)C2=NC3=NC=CN=C3C(=N2)NC4=CC=NC=C4)F
In short: as §1

[4] = compound: C1=CC2=C(C=CC(=C2)/C=C\3/C(=O)NC(=NCC4=CC=CS4)S3)N=C1
In short: as §1

[5] = compound: C1=CC=C2C(=C1)C3=NNC4=CC=CC(=C43)C2=O
In short: as §1

[6] = compound: C1CCN(C1)C(=O)NC2=CC=CC(=C2)NC3=NC=C(C(=N3)NCCC4=CN=CN4)Br
In short: as §1

[7] = compound: C1CN(CCC1(CC2=CC=C(C=C2)Cl)N)C3=NC=NC4=C3C=CN4
In short: as §1

[8] = compound: CC(=O)c1cnc2ccc(-c3cc(Cl)c(O)c(Cl)c3)nc2c1N[C@H]1CC[C@H](CN(C)C)CC1
In short: as §1

[9] = compound: CC(C)(O)CC(=O)NCCn1ccc2ncnc(Nc3ccc(Oc4cccc(C(F)(F)F)c4)c(Cl)c3)c21
In short: as §1

[10] = compound: CC1=C(C2=C(C=C1)C(=O)C3=CC=CC=C3N2CCCN)C
In short: as §1

IRAK-1-4 Inhibitor I = compound: C1COCCN1CCN2C3=CC=CC=C3N=C2NC(=O)C4=CC(=CC=C4)[N+](=O)[O-] [IRAK-1-4 Inhibitor I]
In short: as §1

pinometostat = compound: CC(C)N(C[C@H]1O[C@@H](n2cnc3c(N)ncnc32)[C@H](O)[C@@H]1O)[C@H]1C[C@@H](CCc2nc3cc(C(C)(C)C)ccc3[nH]2)C1 [pinometostat]
In short: as §1

[11] = compound: C1=CC=C(C=C1)C2=NC(=C(N2)C3=CC=NC=C3)C4=CC(=C(C=C4)Cl)O
In short: as §1

ralimetinib = compound: CC(C)(C)Cn1c(N)nc2ccc(-c3[nH]c(C(C)(C)C)nc3-c3ccc(F)cc3)nc21 [ralimetinib]
In short: as §1

[12] = compound: CC(C)C[C@@H](C=O)NC(=O)[C@H](CC(C)C)NC(=O)[C@H](CC(C)C)NC(=O)OCc1ccccc1
In short: as §1

[13] = compound: C1=CC2=NC=CN=C2C=C1/C=C/3\C(=O)NC(=O)S3
In short: as §1

ibrutinib = compound: C=CC(=O)N1CCC[C@@H](n2nc(-c3ccc(Oc4ccccc4)cc3)c3c(N)ncnc32)C1 [ibrutinib]
In short: as §1

erlotinib = compound: C#Cc1cccc(Nc2ncnc3cc(OCCOC)c(OCCOC)cc23)c1 [erlotinib]
In short: as §1

[14] = compound: C1=CC(=CC=C1C2=NC3=C(N2)C=C(C=C3)C(=O)N)OC4=CC=C(C=C4)Cl
In short: as §1

[15] = compound: CC(C)C1=C2N=C(C=C(N2N=C1)NCC3=CC=CC=C3)NCCCCCCN
In short: as §1

Measured: log2 fold change

GANC (UniProt Q8TET4)
inactive: [1] -0.141

GAGE1 (UniProt Q13065)
inactive: [1] 0.022

FRMD8 (UniProt Q9BZ67)
inactive: [2] 0.061 | [3] -0.023 | [4] 0.134 | [5] -0.034 | [6] 0.054 | [7] -0.05 | [8] -0.023 | [9] -0.475 | [1] -0.343 | [10] -0.042

FUT4 (UniProt P22083)
inactive: [6] 0.039 | [7] 0.131 | IRAK-1-4 Inhibitor I -0.246 | pinometostat 0 | [10] -0.324

FRAT1 (UniProt Q92837)
inactive: [11] -0.039 | ralimetinib -0.009 | [12] 0.06

GFM2 (UniProt Q969S9)
inactive: [13] 0.096 | ibrutinib -0.074

FTSJ1 isoform 2 (UniProt Q9UET6)
inactive: erlotinib 0.034 | [14] 0.059 | [15] 0.045

3 successive records out of the list so far:
GAGE1 (UniProt Q13065)
inactive: [1] 0.022

FRMD8 (UniProt Q9BZ67)
inactive: [2] 0.061 | [3] -0.023 | [4] 0.134 | [5] -0.034 | [6] 0.054 | [7] -0.05 | [8] -0.023 | [9] -0.475 | [1] -0.343 | [10] -0.042

FUT4 (UniProt P22083)
inactive: [6] 0.039 | [7] 0.131 | IRAK-1-4 Inhibitor I -0.246 | pinometostat 0 | [10] -0.324

The listing continues.

GAPDH isoform 2 (UniProt P04406)
inactive: erlotinib 0.045 | [14] 0.054 | [15] -0.036

GDPD5 (UniProt Q8WTR4)
inactive: [3] -0.02 | [13] -0.342 | IRAK-1-4 Inhibitor I 0.024 | ibrutinib 0.276 | [9] -0.158 | pinometostat 0.21

GAS6 isoform 1 (UniProt Q14393)
inactive: erlotinib -0.031 | [3] -0.112 | [14] -0.048 | [9] 0.05 | [15] -0.067

GABPB1 isoform 3 (UniProt Q06547)
inactive: [13] 0.002 | [6] -0.113 | [7] -0.048 | ibrutinib -0.031 | [10] -0.257

GDF15 (UniProt Q99988)
inactive: [2] -0.055 | [4] 0.109 | [13] 0.034 | [11] -0.019 | [5] -0.098 | [6] -0.351 | [7] -0.188 | IRAK-1-4 Inhibitor I -0.103 | ibrutinib 0.005 | [8] -0.496 | ralimetinib 0.053 | [12] 0.141 | pinometostat 0.087 | [1] 0.084 | [10] 0.054
